Measured values taken from the supplement of paper PMC12823440, “Inhibitors supercharge kinase turnover through native proteolytic circuits” (Nature, 2025).
Structures can show the parent of a compound that is named as a salt. This is one part of the list. Hit calls seldom repeat between salt and free forms of one compound.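 Kinases were expressed as nanoluciferase fusions in K562 cells and luminescence was read every 4 h between 2 and 18 h as percent of control, DMSO set to 100% and a positive control to 0%. A time point counts as decreased when the signal drops significantly (2 sigma). The hit call is the authors' own, does not follow from the count of time points alone, and its rule is not shown.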

Chains of the proteins cited; added tags and fusions are not shown. Lines headed by an entry give the natural chain unless they say otherwise; changes in a name come on top.
UniProt P42356, whole entry, looked up: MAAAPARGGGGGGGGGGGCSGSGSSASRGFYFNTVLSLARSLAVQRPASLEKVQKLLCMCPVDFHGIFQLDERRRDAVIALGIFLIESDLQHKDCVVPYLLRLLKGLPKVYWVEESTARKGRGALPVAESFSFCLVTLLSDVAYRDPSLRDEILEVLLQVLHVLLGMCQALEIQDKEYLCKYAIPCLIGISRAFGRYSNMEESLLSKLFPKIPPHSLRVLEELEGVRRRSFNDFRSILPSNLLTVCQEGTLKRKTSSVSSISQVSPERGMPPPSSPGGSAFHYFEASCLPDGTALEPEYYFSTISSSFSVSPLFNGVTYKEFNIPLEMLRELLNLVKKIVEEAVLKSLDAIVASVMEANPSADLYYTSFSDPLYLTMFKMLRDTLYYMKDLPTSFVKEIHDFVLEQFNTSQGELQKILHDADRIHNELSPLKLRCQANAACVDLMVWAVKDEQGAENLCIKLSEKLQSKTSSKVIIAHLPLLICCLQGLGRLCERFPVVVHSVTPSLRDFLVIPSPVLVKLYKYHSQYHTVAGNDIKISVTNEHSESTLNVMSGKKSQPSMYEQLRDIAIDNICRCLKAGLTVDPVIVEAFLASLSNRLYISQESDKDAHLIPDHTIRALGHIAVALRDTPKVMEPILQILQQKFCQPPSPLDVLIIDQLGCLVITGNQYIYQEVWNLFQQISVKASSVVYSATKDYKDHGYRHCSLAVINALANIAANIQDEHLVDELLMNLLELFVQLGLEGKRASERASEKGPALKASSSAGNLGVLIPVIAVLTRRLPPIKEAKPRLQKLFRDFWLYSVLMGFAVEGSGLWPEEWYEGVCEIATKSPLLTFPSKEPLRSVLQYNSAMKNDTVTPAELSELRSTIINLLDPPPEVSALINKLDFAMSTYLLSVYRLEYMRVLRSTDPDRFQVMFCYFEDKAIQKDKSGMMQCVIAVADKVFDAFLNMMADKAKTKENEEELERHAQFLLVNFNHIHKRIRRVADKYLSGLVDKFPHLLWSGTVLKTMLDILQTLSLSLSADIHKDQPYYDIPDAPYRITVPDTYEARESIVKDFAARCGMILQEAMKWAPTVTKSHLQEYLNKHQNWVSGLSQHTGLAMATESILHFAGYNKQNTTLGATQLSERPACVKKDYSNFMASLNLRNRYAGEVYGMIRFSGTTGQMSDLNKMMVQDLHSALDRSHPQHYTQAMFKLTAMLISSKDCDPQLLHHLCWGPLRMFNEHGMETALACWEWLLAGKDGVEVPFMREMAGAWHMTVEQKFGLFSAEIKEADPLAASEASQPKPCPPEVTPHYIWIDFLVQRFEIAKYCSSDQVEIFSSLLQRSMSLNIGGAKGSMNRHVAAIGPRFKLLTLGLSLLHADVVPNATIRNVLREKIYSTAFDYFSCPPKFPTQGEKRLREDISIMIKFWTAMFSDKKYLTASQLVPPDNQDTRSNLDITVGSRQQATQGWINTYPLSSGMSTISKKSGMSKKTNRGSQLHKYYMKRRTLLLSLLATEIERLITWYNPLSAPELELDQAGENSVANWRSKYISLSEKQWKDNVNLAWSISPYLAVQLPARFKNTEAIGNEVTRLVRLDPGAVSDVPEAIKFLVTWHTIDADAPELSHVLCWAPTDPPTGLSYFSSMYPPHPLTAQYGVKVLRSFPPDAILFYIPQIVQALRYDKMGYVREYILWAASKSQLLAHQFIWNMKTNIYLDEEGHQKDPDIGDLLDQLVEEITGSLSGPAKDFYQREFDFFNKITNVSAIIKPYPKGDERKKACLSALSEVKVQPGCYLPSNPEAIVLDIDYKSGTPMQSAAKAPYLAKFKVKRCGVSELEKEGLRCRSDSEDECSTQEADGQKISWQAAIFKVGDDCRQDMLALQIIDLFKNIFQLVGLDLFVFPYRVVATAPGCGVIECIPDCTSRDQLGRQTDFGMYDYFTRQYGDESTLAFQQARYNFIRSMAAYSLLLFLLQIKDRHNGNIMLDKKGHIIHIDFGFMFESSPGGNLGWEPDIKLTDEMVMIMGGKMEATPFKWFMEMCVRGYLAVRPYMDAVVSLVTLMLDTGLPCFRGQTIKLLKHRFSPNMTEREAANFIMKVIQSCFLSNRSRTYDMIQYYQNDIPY
UniProt Q9UBF8: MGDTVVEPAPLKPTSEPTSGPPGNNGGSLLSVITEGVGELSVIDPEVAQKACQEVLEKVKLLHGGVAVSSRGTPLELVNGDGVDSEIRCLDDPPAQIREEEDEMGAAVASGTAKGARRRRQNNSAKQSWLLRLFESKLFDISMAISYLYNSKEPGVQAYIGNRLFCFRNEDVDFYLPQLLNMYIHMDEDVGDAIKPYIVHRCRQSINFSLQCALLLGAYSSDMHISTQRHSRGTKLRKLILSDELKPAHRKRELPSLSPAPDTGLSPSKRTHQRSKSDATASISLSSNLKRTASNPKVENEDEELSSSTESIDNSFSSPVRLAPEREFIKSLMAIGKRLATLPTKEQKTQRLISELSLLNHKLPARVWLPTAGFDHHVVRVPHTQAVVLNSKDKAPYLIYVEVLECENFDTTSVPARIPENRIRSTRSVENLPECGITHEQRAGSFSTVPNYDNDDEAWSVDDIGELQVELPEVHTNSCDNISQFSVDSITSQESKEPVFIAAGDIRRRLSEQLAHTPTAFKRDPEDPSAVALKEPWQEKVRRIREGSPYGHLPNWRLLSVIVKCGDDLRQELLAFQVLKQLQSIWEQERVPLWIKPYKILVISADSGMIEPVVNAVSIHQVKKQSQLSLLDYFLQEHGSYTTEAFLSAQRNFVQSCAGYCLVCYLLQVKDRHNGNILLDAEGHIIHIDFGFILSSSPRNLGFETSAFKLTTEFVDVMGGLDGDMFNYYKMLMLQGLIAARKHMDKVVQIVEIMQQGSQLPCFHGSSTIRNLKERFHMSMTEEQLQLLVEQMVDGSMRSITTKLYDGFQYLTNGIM
UniProt Q13131: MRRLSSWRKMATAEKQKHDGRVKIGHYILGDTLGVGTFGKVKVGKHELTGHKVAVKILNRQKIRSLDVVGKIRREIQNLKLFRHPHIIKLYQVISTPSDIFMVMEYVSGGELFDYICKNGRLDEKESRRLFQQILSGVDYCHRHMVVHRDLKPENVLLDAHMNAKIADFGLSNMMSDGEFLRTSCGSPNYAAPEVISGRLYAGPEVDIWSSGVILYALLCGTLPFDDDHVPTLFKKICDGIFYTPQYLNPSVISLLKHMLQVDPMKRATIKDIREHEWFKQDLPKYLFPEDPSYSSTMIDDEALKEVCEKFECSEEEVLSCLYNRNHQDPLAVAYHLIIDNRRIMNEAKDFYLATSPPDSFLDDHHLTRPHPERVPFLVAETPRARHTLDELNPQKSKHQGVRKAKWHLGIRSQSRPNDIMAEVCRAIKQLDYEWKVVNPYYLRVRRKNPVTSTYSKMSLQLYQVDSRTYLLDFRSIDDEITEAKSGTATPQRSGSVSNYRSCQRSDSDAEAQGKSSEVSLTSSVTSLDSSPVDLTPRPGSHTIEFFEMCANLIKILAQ
UniProt P07949, whole entry, looked up: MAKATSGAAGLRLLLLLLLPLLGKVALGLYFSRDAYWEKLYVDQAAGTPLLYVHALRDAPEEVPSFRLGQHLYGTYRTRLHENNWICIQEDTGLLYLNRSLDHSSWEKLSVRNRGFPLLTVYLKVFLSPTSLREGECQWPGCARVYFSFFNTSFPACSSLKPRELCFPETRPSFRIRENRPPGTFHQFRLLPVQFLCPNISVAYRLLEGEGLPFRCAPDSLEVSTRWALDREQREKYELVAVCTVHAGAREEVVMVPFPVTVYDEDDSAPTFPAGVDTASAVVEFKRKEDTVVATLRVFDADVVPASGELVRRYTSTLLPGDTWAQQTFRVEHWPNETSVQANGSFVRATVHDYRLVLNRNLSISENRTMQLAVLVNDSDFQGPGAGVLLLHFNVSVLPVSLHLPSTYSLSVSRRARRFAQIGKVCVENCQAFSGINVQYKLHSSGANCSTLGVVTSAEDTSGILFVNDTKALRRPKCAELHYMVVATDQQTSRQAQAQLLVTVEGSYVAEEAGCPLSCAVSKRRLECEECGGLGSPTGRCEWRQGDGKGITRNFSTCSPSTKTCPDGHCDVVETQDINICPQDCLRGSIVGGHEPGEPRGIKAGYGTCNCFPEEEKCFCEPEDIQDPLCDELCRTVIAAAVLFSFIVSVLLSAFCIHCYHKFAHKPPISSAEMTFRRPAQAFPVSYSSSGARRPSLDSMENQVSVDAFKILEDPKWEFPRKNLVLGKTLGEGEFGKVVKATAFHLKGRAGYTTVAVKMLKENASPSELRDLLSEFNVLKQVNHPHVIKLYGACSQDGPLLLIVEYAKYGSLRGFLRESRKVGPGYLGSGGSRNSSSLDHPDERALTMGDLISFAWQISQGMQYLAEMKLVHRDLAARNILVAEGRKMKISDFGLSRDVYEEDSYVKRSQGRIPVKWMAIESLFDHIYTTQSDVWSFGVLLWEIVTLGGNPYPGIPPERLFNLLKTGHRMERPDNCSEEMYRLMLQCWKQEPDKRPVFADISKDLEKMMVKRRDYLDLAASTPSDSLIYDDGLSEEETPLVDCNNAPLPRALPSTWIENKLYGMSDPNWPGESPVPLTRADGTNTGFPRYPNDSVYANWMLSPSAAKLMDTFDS
UniProt Q9BRS2: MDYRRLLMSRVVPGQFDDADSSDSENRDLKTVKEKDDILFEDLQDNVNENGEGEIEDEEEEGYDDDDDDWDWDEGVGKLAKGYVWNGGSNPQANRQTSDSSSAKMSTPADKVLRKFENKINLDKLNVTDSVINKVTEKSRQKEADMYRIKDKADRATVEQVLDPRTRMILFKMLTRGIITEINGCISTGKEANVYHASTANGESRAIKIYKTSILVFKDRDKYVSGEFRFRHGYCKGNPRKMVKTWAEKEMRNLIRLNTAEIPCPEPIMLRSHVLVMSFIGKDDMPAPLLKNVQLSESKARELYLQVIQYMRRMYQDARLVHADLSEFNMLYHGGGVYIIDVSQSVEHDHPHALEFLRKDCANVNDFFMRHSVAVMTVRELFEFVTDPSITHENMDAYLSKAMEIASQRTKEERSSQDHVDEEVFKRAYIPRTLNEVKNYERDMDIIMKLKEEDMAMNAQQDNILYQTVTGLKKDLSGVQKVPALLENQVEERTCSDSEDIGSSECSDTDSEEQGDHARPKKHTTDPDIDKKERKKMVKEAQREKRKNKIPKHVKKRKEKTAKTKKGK
UniProt Q01974, whole entry: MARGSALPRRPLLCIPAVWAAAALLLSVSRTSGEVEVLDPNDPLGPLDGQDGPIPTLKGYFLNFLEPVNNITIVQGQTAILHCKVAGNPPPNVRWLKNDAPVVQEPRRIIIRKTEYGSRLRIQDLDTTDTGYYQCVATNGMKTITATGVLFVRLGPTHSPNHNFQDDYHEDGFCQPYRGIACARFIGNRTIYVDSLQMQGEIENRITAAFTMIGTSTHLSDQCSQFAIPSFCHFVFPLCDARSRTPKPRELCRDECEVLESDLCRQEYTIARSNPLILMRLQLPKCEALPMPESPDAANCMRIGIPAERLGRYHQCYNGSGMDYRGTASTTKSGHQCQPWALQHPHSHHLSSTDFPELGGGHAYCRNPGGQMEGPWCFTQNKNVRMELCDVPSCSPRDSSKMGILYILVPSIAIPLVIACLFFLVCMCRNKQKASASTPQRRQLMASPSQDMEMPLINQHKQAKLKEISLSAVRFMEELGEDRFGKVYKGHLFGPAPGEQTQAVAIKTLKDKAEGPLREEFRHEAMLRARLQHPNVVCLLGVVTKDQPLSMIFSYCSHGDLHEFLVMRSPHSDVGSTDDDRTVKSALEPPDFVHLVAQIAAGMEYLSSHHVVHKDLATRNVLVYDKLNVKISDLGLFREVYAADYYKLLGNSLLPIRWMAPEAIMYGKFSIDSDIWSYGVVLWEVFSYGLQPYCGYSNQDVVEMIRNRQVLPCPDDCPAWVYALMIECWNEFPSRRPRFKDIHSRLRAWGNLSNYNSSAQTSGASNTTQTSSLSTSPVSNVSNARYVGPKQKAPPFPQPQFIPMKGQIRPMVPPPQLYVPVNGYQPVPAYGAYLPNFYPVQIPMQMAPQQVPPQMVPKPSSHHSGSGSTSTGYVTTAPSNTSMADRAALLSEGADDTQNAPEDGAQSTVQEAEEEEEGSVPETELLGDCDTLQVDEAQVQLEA
UniProt Q9Y6E0: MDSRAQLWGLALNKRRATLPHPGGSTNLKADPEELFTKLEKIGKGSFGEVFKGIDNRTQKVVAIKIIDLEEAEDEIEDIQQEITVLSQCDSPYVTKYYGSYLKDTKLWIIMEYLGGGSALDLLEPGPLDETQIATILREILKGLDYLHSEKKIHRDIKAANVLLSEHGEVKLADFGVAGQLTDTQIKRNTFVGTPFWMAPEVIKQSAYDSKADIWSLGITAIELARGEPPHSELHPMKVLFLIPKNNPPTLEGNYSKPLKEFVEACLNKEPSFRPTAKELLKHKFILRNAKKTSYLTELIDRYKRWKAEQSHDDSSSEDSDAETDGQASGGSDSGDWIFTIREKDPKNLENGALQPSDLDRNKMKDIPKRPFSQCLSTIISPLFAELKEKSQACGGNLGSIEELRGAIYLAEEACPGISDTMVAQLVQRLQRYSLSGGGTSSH

Legend:
Assay in all cases: kinase-Nluc reporter destabilization hit call (1 = scored as downregulated) (binary); higher = compound decreases kinase abundance
Details in all cases: K562, 2-18 h
PDPK1 = PDPK1 (UniProt O15530)
PIK4CA = PIK4CA (UniProt P42356)
PIK4CB = PIK4CB (UniProt Q9UBF8)
PLK1 = PLK1 (UniProt P53350)
PRKAA1 = PRKAA1 (UniProt Q13131)
PRKCA = PRKCA (UniProt P17252)
PTK2 = PTK2 (UniProt Q05397)
PTK2B = PTK2B (UniProt Q14289)
RAF1 = RAF1 (UniProt P04049)
[1] = target: RAF1_S257L (clone: RAF1_mut) (UniProt P04049)
RET = RET (UniProt P07949)
[2] = target: RET_M918T (clone: RET_mut) (UniProt P07949)
RIOK1 = RIOK1 (UniProt Q9BRS2)
RIPK1 = RIPK1 (UniProt Q13546)
RIPK2 = RIPK2 (UniProt O43353)
ROR2 = ROR2 (UniProt Q01974)
RPS6KA1 = RPS6KA1 (UniProt Q15418)
SPHK1 = SPHK1 (UniProt Q9NYA1)
SRC = SRC (UniProt P12931)
STK24 = STK24 (UniProt Q9Y6E0)

Measured: kinase-Nluc reporter destabilization hit call

CN(C)C(=N)NC(=N)N [Metformin (hydrochloride)]
inactive: PDPK1; 10 µM 0 | PIK4CA; 10 µM 0 | PIK4CB; 10 µM 0 | PLK1; 10 µM 0 | PRKAA1; 10 µM 0 | PRKCA; 10 µM 0 | PTK2; 10 µM 0 | PTK2B; 10 µM 0 | RAF1; 10 µM 0 | [1]; 10 µM 0 | RET; 10 µM 0 | [2]; 10 µM 0 | RIOK1; 10 µM 0 | RIPK1; 10 µM 0 | RIPK2; 10 µM 0 | ROR2; 10 µM 0 | RPS6KA1; 10 µM 0 | SPHK1; 10 µM 0 | SRC; 10 µM 0 | STK24; 10 µM 0

Cc1cc(Nc2ncc(Cl)c(Nc3ccccc3S(=O)(=O)C(C)C)n2)c(OC(C)C)cc1C1CCNCC1 [Ceritinib]
inactive: PDPK1; 2.5 µM 0 | PIK4CA; 2.5 µM 0 | PIK4CB; 2.5 µM 0 | PLK1; 2.5 µM 0 | PRKAA1; 2.5 µM 0 | PRKCA; 2.5 µM 0 | PTK2; 2.5 µM 0 | PTK2B; 2.5 µM 0 | RAF1; 2.5 µM 0 | [1]; 2.5 µM 0 | RET; 2.5 µM 0 | [2]; 2.5 µM 0 | RIOK1; 2.5 µM 0 | RIPK1; 2.5 µM 0 | RIPK2; 2.5 µM 0 | ROR2; 2.5 µM 0 | RPS6KA1; 2.5 µM 0 | SPHK1; 2.5 µM 0 | SRC; 2.5 µM 0 | STK24; 2.5 µM 0

O=C(O)c1ccc2c(c1)nc(Nc1cccc(Cl)c1)c1ccncc12 [Silmitasertib]
inactive: PDPK1; 10 µM 0 | PIK4CA; 10 µM 0 | PIK4CB; 10 µM 0 | PLK1; 10 µM 0 | PRKAA1; 10 µM 0 | PRKCA; 10 µM 0 | PTK2; 10 µM 0 | PTK2B; 10 µM 0 | RAF1; 10 µM 0 | [1]; 10 µM 0 | RET; 10 µM 0 | [2]; 10 µM 0 | RIOK1; 10 µM 0 | RIPK1; 10 µM 0 | RIPK2; 10 µM 0 | ROR2; 10 µM 0 | RPS6KA1; 10 µM 0 | SPHK1; 10 µM 0 | SRC; 10 µM 0 | STK24; 10 µM 0

C[C@@H](N)c1ccc(C(=O)Nc2ccnc3[nH]ccc23)cc1
inactive: PDPK1; 10 µM 0 | PIK4CA; 10 µM 0 | PIK4CB; 10 µM 0 | PLK1; 10 µM 0 | PRKAA1; 10 µM 0 | PRKCA; 10 µM 0 | PTK2; 10 µM 0 | PTK2B; 10 µM 0 | RAF1; 10 µM 0 | [1]; 10 µM 0 | RET; 10 µM 0 | [2]; 10 µM 0 | RIOK1; 10 µM 0 | RIPK1; 10 µM 0 | RIPK2; 10 µM 0 | ROR2; 10 µM 0 | RPS6KA1; 10 µM 0 | SPHK1; 10 µM 0 | SRC; 10 µM 0 | STK24; 10 µM 0

COc1cc2c(Oc3ccc4[nH]c(C)cc4c3F)ncnc2cc1OCCCN1CCCC1 [Cediranib (maleate)]
inactive: PDPK1; 2.5 µM 0 | PIK4CA; 2.5 µM 0 | PIK4CB; 2.5 µM 0 | PLK1; 2.5 µM 0 | PRKAA1; 2.5 µM 0 | PRKCA; 2.5 µM 0 | PTK2; 2.5 µM 0 | PTK2B; 2.5 µM 0 | RAF1; 2.5 µM 0 | [1]; 2.5 µM 0 | RET; 2.5 µM 0 | [2]; 2.5 µM 0 | RIOK1; 2.5 µM 0 | RIPK1; 2.5 µM 0 | RIPK2; 2.5 µM 0 | ROR2; 2.5 µM 0 | RPS6KA1; 2.5 µM 0 | SPHK1; 2.5 µM 0 | SRC; 2.5 µM 0 | STK24; 2.5 µM 0

CCCCCCCCc1ccc(CCC(N)(CO)CO)cc1 [Fingolimod (hydrochloride)]
inactive: PDPK1; 2.5 µM 0 | PIK4CA; 2.5 µM 0 | PIK4CB; 2.5 µM 0 | PLK1; 2.5 µM 0 | PRKAA1; 2.5 µM 0 | PRKCA; 2.5 µM 0 | PTK2; 2.5 µM 0 | PTK2B; 2.5 µM 0 | RAF1; 2.5 µM 0 | [1]; 2.5 µM 0 | RET; 2.5 µM 0 | [2]; 2.5 µM 0 | RIOK1; 2.5 µM 0 | RIPK1; 2.5 µM 0 | RIPK2; 2.5 µM 0 | ROR2; 2.5 µM 0 | RPS6KA1; 2.5 µM 0 | SPHK1; 2.5 µM 0 | SRC; 2.5 µM 0 | STK24; 2.5 µM 0

C[C@H](CCC(=O)NCCS(=O)(=O)O)[C@H]1CC[C@H]2[C@@H]3[C@@H](O)C[C@@H]4C[C@H](O)CC[C@]4(C)[C@H]3CC[C@]12C [Tauroursodeoxycholate (dihydrate)]
inactive: PDPK1; 10 µM 0 | PIK4CA; 10 µM 0 | PIK4CB; 10 µM 0 | PLK1; 10 µM 0 | PRKAA1; 10 µM 0 | PRKCA; 10 µM 0 | PTK2; 10 µM 0 | PTK2B; 10 µM 0 | RAF1; 10 µM 0 | [1]; 10 µM 0 | RET; 10 µM 0 | [2]; 10 µM 0 | RIOK1; 10 µM 0 | RIPK1; 10 µM 0 | RIPK2; 10 µM 0 | ROR2; 10 µM 0 | RPS6KA1; 10 µM 0 | SPHK1; 10 µM 0 | SRC; 10 µM 0 | STK24; 10 µM 0

C=CC(=O)Nc1cc(Nc2ncc(C(=O)OC(C)C)c(-c3cn(C)c4ccccc34)n2)c(OC)cc1N(C)CCN(C)C [Mobocertinib (succinate)]
inactive: PDPK1; 10 µM 0 | PIK4CA; 10 µM 0 | PIK4CB; 10 µM 0 | PLK1; 10 µM 0 | PRKAA1; 10 µM 0 | PRKCA; 10 µM 0 | PTK2; 10 µM 0 | PTK2B; 10 µM 0 | RAF1; 10 µM 0 | [1]; 10 µM 0 | RET; 10 µM 0 | [2]; 10 µM 0 | RIOK1; 10 µM 0 | RIPK1; 10 µM 0 | RIPK2; 10 µM 0 | ROR2; 10 µM 0 | RPS6KA1; 10 µM 0 | SPHK1; 10 µM 0 | SRC; 10 µM 0 | STK24; 10 µM 0

Cc1[nH]c(/C=C2\C(=O)Nc3ccc(F)cc32)c(C)c1C(=O)NCCN1CCCC1 [Toceranib (phosphate)]
inactive: PDPK1; 2 µM 0 | PIK4CA; 2 µM 0 | PIK4CB; 2 µM 0 | PLK1; 2 µM 0 | PRKAA1; 2 µM 0 | PRKCA; 2 µM 0 | PTK2; 2 µM 0 | PTK2B; 2 µM 0 | RAF1; 2 µM 0 | [1]; 2 µM 0 | RET; 2 µM 0 | [2]; 2 µM 0 | RIOK1; 2 µM 0 | RIPK1; 2 µM 0 | RIPK2; 2 µM 0 | ROR2; 2 µM 0 | RPS6KA1; 2 µM 0 | SPHK1; 2 µM 0 | SRC; 2 µM 0 | STK24; 2 µM 0
